This is an account of results in article PMC9500956, “In Vitro Characterization of the Physical Interactions between the Long Noncoding RNA TERRA and the Telomeric Proteins TRF1 and TRF2”.

By UniProt entry, the sequences of proteins in these tests, tags left out. Where a name states a change or a piece, a line headed by the entry shows the natural chain unless it says otherwise.
UniProt P70371: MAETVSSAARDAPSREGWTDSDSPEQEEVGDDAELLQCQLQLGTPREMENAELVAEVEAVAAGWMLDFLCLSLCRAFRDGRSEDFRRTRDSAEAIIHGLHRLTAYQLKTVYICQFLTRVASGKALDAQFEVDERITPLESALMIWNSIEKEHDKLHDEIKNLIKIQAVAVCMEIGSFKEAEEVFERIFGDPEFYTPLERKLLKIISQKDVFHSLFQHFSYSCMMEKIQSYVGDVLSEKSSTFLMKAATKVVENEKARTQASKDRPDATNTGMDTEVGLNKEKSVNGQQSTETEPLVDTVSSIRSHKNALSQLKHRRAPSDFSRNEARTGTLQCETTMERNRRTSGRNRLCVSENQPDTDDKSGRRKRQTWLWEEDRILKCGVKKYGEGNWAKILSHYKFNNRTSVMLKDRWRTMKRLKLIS
UniProt O35144: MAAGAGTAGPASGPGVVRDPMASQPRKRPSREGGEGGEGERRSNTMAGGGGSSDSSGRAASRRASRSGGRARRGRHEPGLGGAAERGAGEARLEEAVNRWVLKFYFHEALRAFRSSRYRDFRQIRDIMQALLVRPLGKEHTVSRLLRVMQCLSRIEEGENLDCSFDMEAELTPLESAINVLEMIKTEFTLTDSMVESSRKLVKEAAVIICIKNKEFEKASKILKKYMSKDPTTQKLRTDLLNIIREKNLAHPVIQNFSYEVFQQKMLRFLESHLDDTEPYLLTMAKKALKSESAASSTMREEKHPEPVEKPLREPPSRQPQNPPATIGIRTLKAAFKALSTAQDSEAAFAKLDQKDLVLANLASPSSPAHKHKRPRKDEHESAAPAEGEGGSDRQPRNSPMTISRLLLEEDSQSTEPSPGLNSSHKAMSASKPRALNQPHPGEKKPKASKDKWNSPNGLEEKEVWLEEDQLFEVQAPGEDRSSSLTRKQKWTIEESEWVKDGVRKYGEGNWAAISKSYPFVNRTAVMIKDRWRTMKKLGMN

Construct, isoform or probe ends are uncertain for at least one entry. For some of these results: No signal at the amounts used counts as a negative.

Test in all cases: EMSA
Background: In EMSA bound probe runs differently from free probe, usually more slowly.

In one series the target is GST-mA (mouse) (UniProt P70371). To be noted: E. coli tRNA; RNA EMSA: 50 mM HEPES pH 8, 1 mM DTT, 100 mM NaCl, 0.01% BSA, 2% glycerol, 50 ng/uL E. coli tRNA, 0.25 nM RNA, 20 min on ice then 10 min 25 C; recombinant protein; protein details: N-terminal GST; label: 5'-32P.
In another series the test system is GST. To be noted: E. coli tRNA; RNA EMSA: 50 mM HEPES pH 8, 1 mM DTT, 100 mM NaCl, 0.01% BSA, 2% glycerol, 50 ng/uL E. coli tRNA, 0.25 nM RNA, 20 min on ice then 10 min 25 C; recombinant protein; label: 5'-32P.
The next series deals with GST-mBL (mouse) (UniProt O35144). To be noted: E. coli tRNA; RNA EMSA: 50 mM HEPES pH 8, 1 mM DTT, 100 mM NaCl, 0.01% BSA, 2% glycerol, 50 ng/uL E. coli tRNA, 0.25 nM RNA, 20 min on ice then 10 min 25 C; recombinant protein; protein details: N-terminal GST; label: 5'-32P.
A further series has as its target GST-mB (mouse) (UniProt O35144). Conditions: E. coli tRNA; RNA EMSA: 50 mM HEPES pH 8, 1 mM DTT, 100 mM NaCl, 0.01% BSA, 2% glycerol, 50 ng/uL E. coli tRNA, 0.25 nM RNA, 20 min on ice then 10 min 25 C; recombinant protein; protein details: N-terminal GST; label: 5'-32P.

Consider “UUAGGGUUAGGGUUAGGGUUAGGGUUAGGG [TERRA (UUAGGG)5]”, for which the binding result with GST-mA (mouse) is “no binding”; with GST, “no binding”; with GST-mBL (mouse), “binds”; with GST-mB (mouse), “binds”.
